Assay results published in PubChem BioAssay AID1347075 (National Center for Advancing Translational Sciences (NCATS), 2019).
In all, about 400,000 compounds went through this assay and about 5,500 (1.4%) were called active. This list was built around the results that the source calls inconclusive (neither active nor inactive); the mix of calls is not that of the screen. Calls come from the whole dose curve; as a rule, active = well fitted cell-killing curve with a large enough effect; inconclusive = small, poorly fitted or top-dose-only effect, or effect the other way; inactive = flat fitted curve, though single readings scatter. Potencies of inconclusive entries are doubtful fits and often do not repeat.

Experiment: qHTS assay for MDR1-selective chemotherapeutics: Primary screen using the parental adenocarcinoma cell KB-3-1; note: nearly all actives have a fitted effect of over 60% in size
Settings: KB-3-1 viability, CellTiter-Glo ATP luminescence, 72 h; activity change, negative = cytotoxic: at 46.1 µM (top of the series)
Procedure, shortened: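 Luminescent ATP read-out (CellTiter-Glo) measures survival of drug-naive KB-3-1 cells after 72 h compound exposure at 37 °C. Titration series was screened from lowest to highest concentration, with DMSO vehicle plates as background controls.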
% is set by controls: 0 for no effect and ±100 for the full control effect; potency is the fitted concentration of half-maximal effect.

| Structure (SMILES) | Potency | activity change, negative = cytotoxic |
| --- | --- | --- |
| CCCCCCCC/C=C\CCCCCCCC(=O)NCCc1ccc(O)c(O)c1 | inconclusive: 29.1 µM [cytotoxic, single point] |  |
| CCN(CC)S(=O)(=O)c1cccc(C(=O)N[C@H](C(=O)NC2=NCCS2)C(C)C)c1 | inconclusive: 29.1 µM [rising, single point] |  |
| CCc1ccc(CNC(=O)c2ccc3c(Cl)c4c(nc3c2)CCCC4)cc1 |  | inactive: -17.2% |
| O=C(Nc1ncccc1O)c1ccc(NS(=O)(=O)c2ccc3[nH]c(=O)[nH]c3c2)cc1 | inconclusive: 23.1 µM [cytotoxic, partial curve, poor fit] |  |
| CCCN(CC(=O)Nc1ccccc1OC)C(=O)CNC(=O)c1ccc(C)s1 |  | inactive: -7.48% |
| O=C(C=P(c1ccccc1)(c1ccccc1)c1ccccc1)c1ccccc1-c1ccccc1C(=O)C=P(c1ccccc1)(c1ccccc1)c1ccccc1 | inconclusive: 29.1 µM [cytotoxic, single point] |  |
| Cc1cccnc1C(NC(=O)C1CCN(CCOc2ccc(Cl)cc2Cl)CC1)c1ccc(Cl)cc1 (stereo unspecified) | inconclusive: 29.1 µM [cytotoxic, single point] |  |
| CCOc1ccc2oc(C(=O)NNC(=O)c3ccccc3O)c(C)c2c1 | inconclusive: 16.4 µM [cytotoxic, single point] |  |
| O=C(Oc1c(-c2ccccc2)oc2ccccc2c1=O)c1ccccc1 | inconclusive: 29.1 µM [cytotoxic, single point] |  |
| CCN1CCN(c2cc(C)c3cc(NC(=S)N4CCCC(C)C4)ccc3n2)CC1 (stereo unspecified) | inconclusive: 16.4 µM [cytotoxic, single point] |  |
| Cc1cc(NCCCN2CCOCC2)n2nc(C)c(-c3ccccc3)c2n1 | inconclusive: 20.6 µM [cytotoxic, single point] |  |
| O=C(Nc1ccc(Br)cc1)Nc1cnccn1 | inconclusive: 29.1 µM [cytotoxic, single point] |  |
| NC1CCCCC1N=Cc1c(O)n(CCc2ccc(F)cc2)c(=O)[nH]c1=O (stereo unspecified) | inconclusive: 29.1 µM [cytotoxic, single point] |  |
| C=CCn1cc(/C=C/c2cc[n+](C)cc2)c2ccccc21 | active: 4.11 µM |  |
| CCOC(=O)c1cnn(-c2ccc(C(=O)Nc3ccc(OC(F)(F)F)cc3)cc2)c1N |  | inactive: -3.2% |
| CCOC(=O)Cc1csc(/N=C/c2c(O)n(-c3ccc(C)cc3C)c(=O)c3ccccc23)n1 | inconclusive: 32.6 µM [rising, single point] |  |
| CN(Cc1ccccc1F)Cc1cc(=O)oc2cc(O)c(Cl)cc12 | inconclusive: 0.206 µM [cytotoxic, full curve] |  |
| Cc1nnc2sc(-c3ccc(NC(=O)c4ccc(-c5ccc(Cl)cc5Cl)o4)cc3)nn12 | inconclusive: 25.9 µM [cytotoxic, single point] |  |
| O=C(CCCCCN1C(=O)c2ccccc2C1=O)Nc1nccs1 |  | inconclusive: 4.27% |
| O=C(c1ccc(OC2CCN(CCc3ccccc3)CC2)cc1)N1CCCCC1CCCO (stereo unspecified) |  | inactive: 8.44% |
| COc1cc(-c2nc(-c3ccc4c(c3)-c3ccccc3S4(=O)=O)c(-c3ccccc3)[nH]2)cc(OC)c1O | inconclusive: 18.4 µM [cytotoxic, partial curve, poor fit] |  |

| Structure (SMILES) | Potency | activity change, negative = cytotoxic |
| --- | --- | --- |
| CCOC(=O)[C@@H]1[C@H]2COc3ccc(Br)cc3[C@@H]2N2C(=O)N(c3ccc(Cl)cc3)C(=O)[C@@]12C | inconclusive: 32.6 µM [cytotoxic, single point] |  |
| COc1cc(/C=C2/C(=O)NN(c3cccc(F)c3)C2=O)ccc1OC(=O)c1ccco1 | inconclusive: 18.4 µM [cytotoxic, single point] |  |
| COc1cccc(-c2ccc(NC(=O)C3CCCN(Cc4cnn(C(C)C)c4)C3)cc2)c1 (stereo unspecified) | inconclusive: 20.6 µM [cytotoxic, single point] |  |
| CSCCC(C(=O)NC1CCCC1)n1c(C2CC2)nc2ccccc21 (stereo unspecified) |  | inactive: -0.269% |
| COc1ccc(N(C(=O)CCl)C(C(=O)NCCc2ccccc2)c2cccs2)cc1Cl (stereo unspecified) | active: 8.2 µM |  |
| Cc1cccc(Cn2cc3c(=O)n(CC(=O)Nc4c(C)cccc4C)nc-3c3cc(F)ccc32)c1 |  | inactive: 4.14% |
| COc1ccc(NC(=O)N(C)[C@H]2C[C@H]3c4[nH]c5ccc(-c6cccc(C)c6)cc5c4CCN3C[C@H]2[C@H](C)O)cc1 | inconclusive: 25.9 µM [cytotoxic, partial curve, poor fit] |  |
| CCCn1c(C)cc(C(=O)COc2ccc(-c3nnco3)cc2)c1C | inconclusive: 18.4 µM [cytotoxic, single point] |  |
| CC(C)(C)C(=O)Nc1ccc(C(=O)N/N=C/c2ccccc2OC(=O)c2ccc(Cl)cc2Cl)cc1 | inconclusive: 23.1 µM [cytotoxic, single point] |  |
| COc1cc(C(=O)N/N=C/c2ccccn2)cc(OC)c1OC | active: 18.4 µM |  |
| O=C(Nc1nc(-c2ccccc2)cs1)c1ccc2c(=O)n3c(nc2c1)CCCCC3 | inconclusive: 25.9 µM [cytotoxic, partial curve, poor fit] |  |
| C[C@@H](c1ccccc1)N1C[C@H]2CCCN2c2cc(Br)ccc2S1(=O)=O | inconclusive: 29.1 µM [cytotoxic, single point] |  |
| Fc1ccc(-c2cn(-c3ccccc3)c3[n+]2CCS3)cc1 | inconclusive: 29.1 µM [cytotoxic, single point] |  |
| CS(=O)(=O)N(Cc1ccco1)CC(O)Cn1cc(C=O)c2ccccc21 (stereo unspecified) |  | inactive: -4.2% |
| O=C(NCCN1CCN(c2ccccc2)CC1)Nc1cccc(Br)c1 | inactive |  |
| CCc1cc(C(=O)c2ccccc2)c(N)s1 |  | inactive: 3.03% |
| CCCOc1ccc2c(C)c(CC(=O)OC)c(=O)oc2c1 | inconclusive: 16.4 µM [cytotoxic, single point] |  |
| CCOC(=O)CC(=O)CSc1nc(-c2ccccc2)cc(-c2ccccc2)c1C#N |  | inactive: -2.47% |
| O=C(c1cc(Cl)cc(Cl)c1)N1CCN(c2cc(C(F)(F)F)nc3ccccc23)CC1 | inconclusive: 20.6 µM [cytotoxic, single point] |  |
| Cc1ccc(-n2ncc3c(SCc4ccccn4)ncnc32)c(C)c1 | inconclusive: 18.4 µM [cytotoxic, partial curve, poor fit] |  |

Entries shown so far that contain a thiophene ring, fused or not, in the order listed:

| Structure (SMILES) | Potency | activity change, negative = cytotoxic |
| --- | --- | --- |
| CCCN(CC(=O)Nc1ccccc1OC)C(=O)CNC(=O)c1ccc(C)s1 |  | inactive: -7.48% |
| COc1ccc(N(C(=O)CCl)C(C(=O)NCCc2ccccc2)c2cccs2)cc1Cl (stereo unspecified) | active: 8.2 µM |  |
| CCc1cc(C(=O)c2ccccc2)c(N)s1 |  | inactive: 3.03% |
